Laboratory results: PubChem BioAssay AID504774 (Drosophila RNAi Screening Center, 2011)

Test: 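Knock-downs that shift viability of MMS-exposed cells relative to untreated ones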 (primary screen)
Cell system: Drosophila Kc167 cells
Reagent: long dsRNA against Drosophila genes, about 0.25 µg dsRNA per well
Time to read-out: about 6 days: 3 days knock-down, then 3 days with or without MMS
Challenge: methyl methanesulphonate 0.004% (w/v) for 3 days after knock-down
Measurement: 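Viability in wells given MMS, read as ATP luminescence, normalised by quantiles plate by plate and averaged across replicates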
Reading the numbers: mean viability with MMS: higher = more surviving cells after MMS
In all, the deposit lists about 23,000 reagents; shown is an unselected part of those with a known target gene and a result. 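Values are quantile-normalised luminescence on an arbitrary scale; higher means more cells surviving MMS.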 The numbers tell different reagents against one gene apart. Further read-outs or replicates are left out here.

no.	Target gene	reagent	mean viability with MMS
1	CG31900 (retired record)	1	3.20e6
2	CR10032 (pseudo)	1	3.64e6
3	CG13160	1	3.79e6
4	CG32713	1	3.52e6
5	CG34273	1	3.56e6
6	CG15117	1	3.58e6
7	CG17652	1	3.38e6
8	su(Hw) (suppressor of Hairy wing)	1	3.62e6
9	CG10237	1	3.79e6
10	sac (sterile affecting ciliogenesis)	1	3.58e6
11	Rep (Rab escort protein)	1	3.63e6
12	Spn28Dc (Serpin 28Dc)	1	3.56e6
13	CG10979	1	3.63e6

In a second layout: entries from further up.
Target gene	reagent	mean viability with MMS
Rep (Rab escort protein)	1	3.63e6
Spn28Dc (Serpin 28Dc)	1	3.56e6

More entries follow:
no.	Target gene	reagent	mean viability with MMS
14	CG9973 (retired record)	1	3.34e6
15	kirre (kin of irre)	1	3.58e6
16	Hel89B (Helicase 89B)	1	3.70e6
17	Hel89B (Helicase 89B)	2	3.48e6
18	Tsp26A (Tetraspanin 26A)	1	3.60e6
19	Taf13 (TBP-associated factor 13)	1	3.51e6
20	CSN3 (COP9 signalosome subunit 3)	1	3.32e6
21	CG6923	1	3.75e6
22	CG14573	1	3.49e6
23	Ir56d (Ionotropic receptor 56d)	1	3.51e6
24	CG12825	1	3.73e6
25	CG10366	1	3.61e6
26	CG12828	1	3.62e6
27	dod (dodo)	1	3.69e6
28	Su(z)12	1	3.45e6
